The record followed here is patent US7910575B2, “Prophylactic or therapeutic agents for allergic ophthalmic diseases or allergic nasal diseases, comprising tricyclic triazolobenzazepine derivative” (Meiji Seika Kaisha, Ltd., priority 2006, dated 2011).

In this assay the test system is allergic conjunctivitis. The assay is described as follows: Prophylactic effect on allergic conjunctivitis (instillation before induction, late phase). The format is in vivo, rat. As to conditions: Test Example 1-2, medicament concentration 0.1%. On the procedure:
Male SD rats were prepared. Bordetella pertussis (4×10^10) and 1 mg of dinitrophenylated ovalbumin (hereinafter often abbreviated to “DNP-OA”) were subcutaneously administered into the footpad of the rats. After 8 to 10 days from the administration, a 3% DNP-OA solution was administered to the right eye of the rats to induce an allergic reaction. In some experiments, in order to confirm dye leakage and location of edema, a dye was injected, and, in the anatomy, the coincidence of dye leakage with the location of edema was confirmed. […] After 9 hr from the induction of the allergic reaction, the eyeballs of the rats were harvested. Further, lenses, hydatoids, and the contents of the vitreous body were removed from the eyeballs, and the weight of the tissues was measured. Furthermore, the dye leakage amount in the harvested eye tissue was measured. […] The absorbance (630 nm) of Evans Blue in the supernatant was measured with Multiskan JX (manufactured by Labsystem Ltd.). The amount of the dye was regarded as a dye leakage amount. […] For the control group, 0.15 M sodium hydrogencarbonate adjusted to pH 7.2 was administered. […] In the table, the inhibition ratio was calculated by the following equation. […]

Marks after values point to notes of the source that are not given here.

For `C[C@H]1C[C@H]2[C@@H]3CCC4=CC(=O)C=C[C@]4(C)[C@@]3(F)[C@@H](O)C[C@]2(C)[C@@]1(O)C(=O)COP(=O)([O-])[O-].[Na+].[Na+]` [Betamethazone, betamethazone sodium phosphate, reference compound], the “Inhibition ratio Increase in tissue weight” value was 79.6% **.
